Earlier results in patent US7790947B2 (priority 2001, dated 2010).
At least one structure is not confirmed: it was looked up by name or label, or the drawing left a doubt.

Key:
[1] = test system: organisms reported to be associated with bacterial vaginosis, such as Bacteroides spp., Prevotella spp., Gardnerella vaginalis, Mycoplasma hominis and …; details: cited from earlier work
[2] = test system: TSST-1 toxin production by S. aureus; details: cited from earlier work

| SMILES | antimicrobial effectiveness [1] | effect on toxin (TSST-1) production by S. aureus [2] | antibacterial activity in vitro [1] |
| --- | --- | --- | --- |
| CCC[C@@H]1C[C@@H](C(=O)N[C@@H]([C@H]2O[C@H](SC)[C@H](O)[C@@H](O)[C@H]2O)[C@H](C)Cl)N(C)C1 [Clindamycin, reference compound] | effective antimicrobial agent | depresses toxin production | – |
| CCC[C@@H]1C[C@@H](C(=O)N[C@@H]([C@H]2O[C@H](SC)[C@H](OP(=O)(O)O)[C@@H](O)[C@H]2O)[C@H](C)Cl)N(C)C1 [clindamycin phosphate] | – | – | inactive in vitro |
